Results as given in PMC10654507, “A cleavable chimeric peptide with targeting and killing domains enhances LPS neutralization and antibacterial properties against multi-drug resistant E. coli” (Communications Biology, 2023).
Residues, ends and D or L forms follow the SMILES beside them.

Test: CD analysis of secondary structure
Format: physicochemical
Conditions: for α-Helix, percentage of secondary structure: 25 °C, CDNN; for α-helical content: range over SDS (5 ~ 40 mM) and 50% TFE buffer

SMILES	α-Helix, percentage of secondary structure (5 mM SDS)	α-Helix, percentage of secondary structure (20 mM SDS)	α-Helix, percentage of secondary structure (40 mM SDS)	α-Helix, percentage of secondary structure (50% TFE)	α-Helix, percentage of secondary structure (H2O)	α-helical content
CSCC[C@H](NC(=O)[C@H](CCCNC(=N)N)NC(=O)[C@H](Cc1c[nH]c2ccccc12)NC(=O)[C@H](C)NC(=O)[C@H](Cc1c[nH]c2ccccc12)NC(=O)[C@H](CCCNC(=N)N)NC(=O)[C@H](Cc1c[nH]c2ccccc12)NC(=O)[C@H](C)NC(=O)[C@H](CCCCN)NC(=O)[C@@H](N)Cc1ccccc1)C(=O)N[C@@H](CCCCN)C(=O)N[C@@H](CCCCN)C(=O)N[C@@H](CC(C)C)C(=O)N[C@@H](C)C(=O)N[C@@H](C)C(=O)N1CCC[C@H]1C(=O)N[C@@H](CO)C(=O)O [L7] (H-FKAWRWAWRMKKLAAPS-OH)	32.0%	10.2%	10.1%	13.9%	4.8%	10.1 ~ 32.0%
CSCC[C@H](NC(=O)[C@H](CCCNC(=N)N)NC(=O)[C@H](Cc1c[nH]c2ccccc12)NC(=O)[C@H](C)NC(=O)[C@H](Cc1c[nH]c2ccccc12)NC(=O)[C@H](CCCNC(=N)N)NC(=O)[C@H](Cc1c[nH]c2ccccc12)NC(=O)[C@H](C)NC(=O)[C@H](CCCCN)NC(=O)[C@H](Cc1ccccc1)NC(=O)[C@H](CCCNC(=N)N)NC(=O)[C@H](CCCNC(=N)N)NC(=O)[C@H](CCCCN)NC(=O)[C@H](CCCNC(=N)N)NC(=O)[C@H](CCCCN)NC(=O)[C@H](Cc1ccccc1)NC(=O)[C@H](Cc1ccccc1)NC(=O)[C@H](CO)NC(=O)[C@H](C)NC(=O)[C@H](CCCNC(=N)N)NC(=O)[C@@H](NC(=O)[C@H](CCCCN)NC(=O)[C@H](Cc1c[nH]c2ccccc12)NC(=O)[C@H](CCCNC(=N)N)NC(=O)CNC(=O)[C@H](CCC(N)=O)NC(=O)[C@@H](NC(=O)[C@@H](N)CCCNC(=N)N)C(C)C)C(C)C)C(=O)N[C@@H](CCCCN)C(=O)N[C@@H](CCCCN)C(=O)N[C@@H](CC(C)C)C(=O)N[C@@H](C)C(=O)N[C@@H](C)C(=O)N1CCC[C@H]1C(=O)N[C@@H](CO)C(=O)O [R7] (H-RVQGRWKVRASFFKRKRRFKAWRWAWRMKKLAAPS-OH)	35.4%	22.9%	23.5%	50.4%	3.5%	22.9 ~ 50.4%
